Assay results reported in patent US12440528B2, “Methods of treating ovarian cancer with hemp extract” (Ecofibre USA Inc., priority 2021, dated 2025).
For some assays here: For at least one compound, name, drawing or mass did not settle the structure. Some entries share one result that the patent states for a list of compounds.

What was measured:
cancer organoid = test: Effect of pH of the Cannabis extract on organoid viability; assay type: cell-based, human; settings: pH 4
Excerpt: In each case, the control vehicle, buffered to the same pH was ineffective in killing the cells at all, and thus was not depicted.

[1] = tested on: patient derived organoids (PD3D Cell Culture); test: Calculated IC50 in PD3D cell culture of the patient derived organoids; assay type: cell-based, human

## C=C(C)[C@@H]1CCC(C)=C[C@H]1c1c(O)cc(CCCCC)cc1O [CBD isolate, cannabidiol]
Cancer organoid
  viability of the organoids: < 1%

## Cc1ccc(C(=O)Nc2ccc(CN3CCN(C)CC3)c(C(F)(F)F)c2)cc1C#Cc1cnc2cccnn12 [Ponatinib]
[1]
  Calculated IC50 PD3D Cell Culture: Not Reached
